Article doi:10.1101/586834
Results are given in words; binding and its absence hold for the method and conditions named. In cells and extracts the contact can be indirect. A yes stands for co-enrichment or nearness to the bait. Other partners may have been found. For some of these results: Tags and fused reporters may be left off the sequences shown.

Chains of the proteins cited; added tags and fusions are not shown. Lines headed by an entry give the natural chain unless they say otherwise; changes in a name come on top.
UniProt Q9TZB2: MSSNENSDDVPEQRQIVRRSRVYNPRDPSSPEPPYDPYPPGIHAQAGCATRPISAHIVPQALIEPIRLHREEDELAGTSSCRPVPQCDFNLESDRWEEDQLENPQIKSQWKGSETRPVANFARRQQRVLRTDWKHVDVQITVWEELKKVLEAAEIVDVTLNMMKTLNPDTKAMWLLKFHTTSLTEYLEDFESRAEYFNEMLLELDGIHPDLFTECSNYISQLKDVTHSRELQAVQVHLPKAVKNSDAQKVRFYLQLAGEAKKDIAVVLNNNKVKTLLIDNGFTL
UniProt Q3V5H4: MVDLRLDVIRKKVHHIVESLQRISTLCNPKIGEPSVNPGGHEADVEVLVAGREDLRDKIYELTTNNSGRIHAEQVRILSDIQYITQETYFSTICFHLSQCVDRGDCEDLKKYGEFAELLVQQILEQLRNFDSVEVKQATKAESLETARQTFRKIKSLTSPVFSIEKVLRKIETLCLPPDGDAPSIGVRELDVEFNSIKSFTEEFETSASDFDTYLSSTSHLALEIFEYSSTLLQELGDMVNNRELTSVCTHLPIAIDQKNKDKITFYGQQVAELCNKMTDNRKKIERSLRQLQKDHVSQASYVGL

T1: CUL-6::GFP::3xFLAG (C. elegans) (UniProt Q21346)
T1 sequence: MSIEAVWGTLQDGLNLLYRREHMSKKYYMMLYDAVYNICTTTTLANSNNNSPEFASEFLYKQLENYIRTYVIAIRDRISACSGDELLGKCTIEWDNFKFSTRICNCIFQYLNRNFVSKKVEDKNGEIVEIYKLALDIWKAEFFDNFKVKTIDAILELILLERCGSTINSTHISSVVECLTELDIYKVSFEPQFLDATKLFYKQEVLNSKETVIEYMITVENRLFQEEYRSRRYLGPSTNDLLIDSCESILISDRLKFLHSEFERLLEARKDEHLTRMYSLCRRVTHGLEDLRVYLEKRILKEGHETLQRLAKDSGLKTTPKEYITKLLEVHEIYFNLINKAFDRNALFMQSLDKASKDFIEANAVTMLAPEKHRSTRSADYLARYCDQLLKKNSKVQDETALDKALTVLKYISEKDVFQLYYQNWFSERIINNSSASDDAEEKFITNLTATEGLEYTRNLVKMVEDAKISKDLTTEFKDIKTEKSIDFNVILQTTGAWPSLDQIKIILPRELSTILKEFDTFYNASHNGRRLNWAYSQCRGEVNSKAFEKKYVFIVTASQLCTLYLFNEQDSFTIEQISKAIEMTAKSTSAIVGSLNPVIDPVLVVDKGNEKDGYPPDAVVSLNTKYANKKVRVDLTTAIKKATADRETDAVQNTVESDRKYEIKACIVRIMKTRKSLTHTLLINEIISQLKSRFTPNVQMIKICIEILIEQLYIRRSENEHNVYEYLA

B1: RPN-6.1 (protein, UniProt Q20938 1-438)
chain: MRETSSREDTNNIGKAPEMSGGTIMDTMTSLPHQNDQNVIRHLTNLVKSPASGDDDIKKKEDSIMELGNILAQNKQTEELRNMIEQTRPFLVSLGKAKAAKLVRDLVDLCLKIDDQDGDIKVGLVKECIQWATEQNRTFLRQTLTARLVRLYNDLQRYTQALPLAADLIRELKKVDDKDVLVEVELEESKAYYNLSNIGRARASLTGARTTANAIYVNPRMQAALDLQSGILHAADEKDFKTAFSYFYEAFEGYDSVDEKVSALTALKYMLLCKVMLDLPDEVNSLLSAKLALKYNGSDLDAMKAIAAAAQKRSLKDFQVAFGSFPQELQMDPVVRKHFHSLSERMLEKDLCRIIEPYSFVQIEHVAQQIGIDRSKVEKKLSQMILDQKLSGSLDQGEGMLIVFEIAVPDEAYQTALDTIHAMGEVVDALYSNASKIN
B2: RPN-8 (protein, UniProt O61792 1-362)
chain: MAPTNKDGDVATVKAVDVLKQKAGAHHCLGNVHANLPVNKVTVHPLVLLSVVDHFNRVSKTQSVKRVVGVLLGSMKKDKTLDIGNSFAVPFDEDDKDKSTWFLDMDYLESMYGMFYKVAAKEKIVGWYHTGPKLHKNDIAINEQLKRFCPNPVLVIIDAEPKNIGLPTEAYIEVQEVHDDGTPPIKTFEHVPSDIGAEEAEEVGVEHLLRDIKDQTAGTLSQRITDQLMGLRGLQSQLESIEKYLHDIVRGTLPVNHHVIYYVQEVLNLLPDVTHPDYIVSQNVQTNDQLMCVYMGSLVRSVVALHNLIDNKISLQKAEKEQETGEAEKKKDEKDKKDKKDEKKDEKKEKDSKSSTPNTPKK
B3: RPT-3 (protein, UniProt P46502 1-414)
chain: MSAAALEEIGIAPLQENTSLRPPPLPATCVDVSSDDYIKLTTLERQLAHLQVMEDYIKLETRNLEKELLHAQEEVKRIQSVPLVIGQFLEAVDQNHAIVGSTTGSNYYVRVLSILDRELLKPGCSVALHKYSNALVDVLPPEADSSIQMLRPDEKPDISYGDIGGLDMQKQEVREAVELPLTHGELYQQIGIDPPRGVLMYGPPGCGKTMLAKAVAANTAASFIRVVGSEFVQKYLGEGPRMVRDVFRLAKENSPSIIFIDEIDAIATKRFDAQTGADREVQRILLELLNQMDGFDQSTNVKVIMATNRQDTLDPALLRPGRLDRKIEFPLPDRRQKRLVFSTVCSRMNLSDDVDLEDWVARPDKISGADINSICQEAGMQAVRENRYVVLTKDLEKAYKNVVKKDTNDFEFYK
B4: RPT-4 (protein, UniProt O17071 1-406)
chain: MLLLQFSNMVEPTGPAIVEDERTKALNSYRRKLAECRDIEQKLKDLRKKESEMTKQFDKSENDIKSLQSVGQIVGEVLKQLSEEKFIVKATNGPRYVVGCRRSINKEELKQGTRVSLDMTTLTIMRQLPREVDPLVYKMSHEDPGNISYSDVGGLAEQIRELREVVELPLINPELFKRVGITPPKGCLLFGPPGTGKTLLARAVASQLDCNFLKVVSSAIVDKYIGESARMIREMFNYARDHQPCIVFMDEIDAIGGRRFSEGTSADREIQRTLMELLNQLDGFDSLGKVKVIMATNRPDTLDPALLRPGRLDRKIEIGLPNEQSRLEILKIHSNKITKHGEIDFEAVVKLSDGFSAADLRNVCTEAGMFAIRAEREFVIDEDFMKAVRKVGDAKRLETKLDYKPV

Each molecule was assayed against T1, CUL-6::GFP::3xFLAG (C. elegans) (assay: affinity purification with mass spectrometry).

| Molecule | binding |
| --- | --- |
| RPN-9 (from UniProt Q22253) | binds |
| Skp-related protein SKR-3 (from UniProt G5EE67) | binds |
| FBXA-75 (from UniProt Q966E2) | binds |
| F-box protein FBXA-158 (C. elegans (endogenous in whole animals)) | binds |
| RPN-5 (from UniProt Q19324) | binds |

Each molecule was assayed against PALS-22::GFP::3xFLAG (C. elegans) (UniProt Q9TZB2) (assay: affinity purification with mass spectrometry).

| Molecule | binding |
| --- | --- |
| PALS-25 (from UniProt Q3V5H4) | binds |

Target: T1, CUL-6::GFP::3xFLAG (C. elegans)
Assay: affinity purification with mass spectrometry
Remark: another data set of the same source

| Molecule | binding |
| --- | --- |
| B1 | binds |
| B2 | binds |
| B3 | binds |
| B4 | binds |
